These results are taken from US10934253B2, “Therapeutic compounds and methods” (UNIVERSITY OF TASMANIA, priority 2017, dated 2021).

Each structure is given as a SMILES string. Some compounds share one wording; it may come from a single statement.

The subject of the data set is streptozotocin-induced diabetic retinopathy in Long Evans rats. In words: Diabetic retinopathy rat model (streptozotocin, high fat diet), eye drops. The settings on record: STZ, once daily eye drops from week 14 (idebenone 10 mg/ml, UTA37 4.6 mg/ml, UTA77 7.36 mg/ml), compared to control rats. The format is in vivo.
Take `COc1ccc(CCNC(=O)CCCC2=C(C)C(=O)c3ccccc3C2=O)cc1OC` [UTA #77, N-(3,4-dimethoxyphenethyl)-4-(3-methyl-1,4-naphthoquinone-2-yl)butanamide]: the “Systemic blood glucose levels (in words)” value is listed as “did not significantly alter systemic blood glucose levels”.

In the case of `COC1=C(OC)C(=O)C(CCCCCCCCCCO)=C(C)C1=O` [Idebenone, idebenone, reference compound], the “Systemic blood glucose levels (in words)” value is “did not significantly alter systemic blood glucose levels”.

As to `CC1=C(CCCC(=O)N[C@@H](Cc2ccccc2)C(=O)O)C(=O)c2ccccc2C1=O` [UTA #37, (S)-2-(4-(3-methyl-1,4-naphthoquinone-2-yl)butanamido)-3-phenylpropanoic Acid], the “Systemic blood glucose levels (in words)” value was “did not significantly alter systemic blood glucose levels”.
